pKi: −log10 of the molar value.
Molecular target: α7 NNR (UniProt Q05941)
Conditions: [3H]-DPPB binding

`N#Cc1cccc(-c2cncc(N3CC4CC5CC3CN(C5)C4)c2)c1` (stereo not shown) [Example 90, 3-[5-(1,4-diazatricyclo[4.3.1.1^3,8]undec-4-yl)pyridin-3-yl]benzonitrile] was tested. Which pKi did it give?
The pKi was 7.31.
